Assay results published in US6384083B1, “USE OF ADAMANTANE AMINES OR STRUCTURALLY SIMILAR COMPOUNDS FOR COMBATING BORNA DISEASE VIRUS AND FOR THE PREVENTION AND TREATMENT OF AFFECTIVE DISEASES AND OTHER DISORDERS ASSOCIATED WITH BDV INFECTIONS IN HUMANS AND ANIMALS” (priority 1996, dated 2002).
Structures can show the parent of a compound that is named as a salt.

Test system: human BDV
Settings: 1.2 μg/mL for 6 days, then untreated for following 6 days, daily passages

Structure (SMILES): NC12CC3CC(CC(C3)C1)C2 [amantadine sulfate]
- BDV infection after the treatment-free interval: could no longer be detected
